Experimental data from patent US20140010801A1, “Compositions and Methods for Restoring or Rejuvenating Stem/Progenitor Cell Function” (UNIVERSITY OF PITTSBURGH - OF THE COMMONWEALTH SYSTEM OF …, priority 2012, published 2014).
At least one structure is not confirmed: it was looked up by name or label, or the drawing left a doubt.

Assays:
Assay type in all cases: cell-based, mouse
[1] = tested on: Ercc1^−/Δ MDSPCs; assay: Chondrogenic differentiation assay (micromass, Alcian blue) with or without rapamycin; settings: progeroid MDSPCs, 10 nM rapamycin
[2] = tested on: Ercc1^−/Δ MDSPCs; assay: Myogenic differentiation assay with or without rapamycin; settings: 10 nM rapamycin
[3] = tested on: Ercc1^−/Δ MDSPCs; assay: Adipogenic differentiation assay (AdipoRed) with or without rapamycin; settings: 10 nM rapamycin
[4] = tested on: Ercc1^−/Δ MDSPCs; assay: Apoptosis assay (TUNEL, cleaved PARP) with or without rapamycin; settings: 10 nM rapamycin
[5] = tested on: Ercc1^−/Δ MDSPCs; assay: Cellular senescence assay (SA-β-gal, p16, p21) with or without rapamycin; settings: 10 nM rapamycin

## CO[C@H]1C[C@@H]2CC[C@@H](C)[C@@](O)(O2)C(=O)C(=O)N2CCCC[C@H]2C(=O)O[C@H]([C@H](C)C[C@@H]2CC[C@@H](O)[C@H](OC)C2)CC(=O)[C@H](C)/C=C(\C)[C@@H](O)[C@@H](OC)C(=O)[C@H](C)C[C@H](C)/C=C/C=C/C=C/1C [rapamycin]
[1]; 6 days, p=0.002
  chondrogenic differentiation (Alcian blue): attenuated
[1]; RT-PCR, p<0.001
  expression of Col2A1: up-regulated
[1]; RT-PCR, p=0.028
  expression of aggrecan: up-regulated
[2]; RT-PCR, p<0.001
  expression of MyHC: up-regulated
[2]; RT-PCR, p=0.002
  expression of desmin: up-regulated
[2]; p<0.001
  myogenic differentiation capacity (f-MyHC positive cells): significantly improved
[3]; Ercc1^−/Δ MDSPCs, RT-PCR, p<0.001
  PPARγ expression: reduced level
[3]; Ercc1^−/Δ MDSPCs, RT-PCR, p=0.001
  LPL expression: reduced level
[3]; progeroid MDSPCs, 15 days, p<0.001
  adipogenic differentiation (AdipoRed): attenuated
[4]; Ercc1^−/Δ MDSPCs, p<0.001
  percent of TUNEL positive cells: effectively reduced
[4]; MDSPCs, immunoblot
  expression of cleaved PARP: attenuate
[5]; Ercc1^−/Δ MDSPCs, p<0.001
  percentage of SA-β-gal-positive cells: notably reduced
[5]; MDSPCs, immunoblot
  expression of p16: decreased
  expression of p21: decreased
